{"source": "patent US20250108066A1", "about": "“TRINUCLEOTIDE CAP ANALOGS AND METHODS OF USE THEREOF” (TriLink BioTechnologies, LLC, priority 2022, published 2025)", "test_system": "CD-1 mice", "assay": "In vivo luciferase expression in mice injected with LNP:mRNA (Fluc mRNA capped with cap analog), whole-body bioluminescence imaging", "details": "female CD-1 mice, LNP:mRNA 1 mg/kg single tail-vein bolus; pairwise comparison 3′OMe vs 3′OH on m7G; FIG. 4 / FIG. 2", "procedure": "Female CD-1 mice of 8-9 weeks old were randomized into groups of five animals based on body weight at the beginning of the study (Charles River Laboratories, Discovery Research Services North Carolina). Lipid nanoparticle formulations including mRNA (capped using a cap analog recited in Table 1, N1-methylpseudouridine-5′-Triphosphate (N1-me-PsU) modified firefly luciferase (Fluc) mRNA) (LNP:mRNA) test articles were diluted in PBS to achieve 1 mg/kg delivery in a single bolus by tail-vein injection. The body weight of each mouse was measured once a day for the duration of the study and two blood draws were taken for serum analysis by Mouse Cytokine/Chemokine 26-Plex ProcartaPlex Panel 1 by Luminex platform (Thermo Fisher Scientific; Waltham, MA). Luciferase activity was measured by whole-body bioluminescence imaging on IVIS Spectrum CT system by Perkin Elmer (Greenville, SC) at six time points post mRNA injection (3 hours, 6 hours, 9 hours, 12 hours, 24 hours, and 48 hours hours post-injection). D-luciferin was delivered by intraperitoneal injection 10 minutes prior to each imaging session (150 mg/kg total). The measured luciferase expression results are shown in FIG. 2, showing the integrated flux from 3-48 hours. […] Luminescence intensity scale is on the left.", "note": "At least one compound was matched to its structure with a doubt left."}
{"smiles": "CNc1ncnc2c1ncn2[C@@H]1O[C@H](COP(=O)(O)OP(=O)([O-])OP(=O)(O)OC[C@H]2O[C@@H](n3c[n+](C)c4c(=O)[nH]c(N)nc43)[C@@H](OC)C2OC)C(OP(=O)(O)OC[C@H]2O[C@@H](n3cnc4c(=O)[nH]c(N)nc43)C(O)[C@H]2O)[C@@H]1OC", "note": "(stereo in doubt) [Compound 27, ^m7G2′OMe3′OMeppp^m6A2′OMepG]", "values": [{"measurement": "in vivo luciferase expression (translation) as compared to the same compound lacking the 3′OMe group on the m7G", "result": "increased luciferase expression in vivo"}]}
